Experimental data taken from patent US20250288536A1, “PROTEIN PARTICLES INCLUDING AN ACTIVE AGENT AND METHODS OF MAKING AND USING THE SAME” (Dairy Mangement Inc., priority 2022, published 2025).
Some results were stated once for a whole list of compounds, not compound by compound.

Test: Particle size, particle size distribution and PDI by DLS (Example 6)
Format: physicochemical

Structure (SMILES): N[C@@H](Cc1c[nH]c2ccccc12)C(=O)O [Trp, tryptophan]
- particle size in molecular form: < 10 nm
